These are yes or no findings as the source states them, for the method shown. Binding seen in cells or lysates may run through a third protein. Some binding calls cover weakened binding; strength is not graded here.
Assays:
[1] = molecular target: Flag-tagged full-length BRPF3 (UniProt B2KF05); assay: co-IP; CFs lysed in Co-IP lysis buffer with protease inhibitor; capture with flag antibody and Protein A/G magnetic beads at 4 °C overnight; immunoblot; IgG as negative control
[2] = molecular target: BRPF3 (in mouse heart tissue) (mouse (endogenous in heart tissue)) (UniProt B2KF05); assay: co-IP; Co-IP and WB analysis in mouse heart tissue; antibody and bait not stated

Chains of the proteins cited; added tags and fusions are not shown.
UniProt B2KF05: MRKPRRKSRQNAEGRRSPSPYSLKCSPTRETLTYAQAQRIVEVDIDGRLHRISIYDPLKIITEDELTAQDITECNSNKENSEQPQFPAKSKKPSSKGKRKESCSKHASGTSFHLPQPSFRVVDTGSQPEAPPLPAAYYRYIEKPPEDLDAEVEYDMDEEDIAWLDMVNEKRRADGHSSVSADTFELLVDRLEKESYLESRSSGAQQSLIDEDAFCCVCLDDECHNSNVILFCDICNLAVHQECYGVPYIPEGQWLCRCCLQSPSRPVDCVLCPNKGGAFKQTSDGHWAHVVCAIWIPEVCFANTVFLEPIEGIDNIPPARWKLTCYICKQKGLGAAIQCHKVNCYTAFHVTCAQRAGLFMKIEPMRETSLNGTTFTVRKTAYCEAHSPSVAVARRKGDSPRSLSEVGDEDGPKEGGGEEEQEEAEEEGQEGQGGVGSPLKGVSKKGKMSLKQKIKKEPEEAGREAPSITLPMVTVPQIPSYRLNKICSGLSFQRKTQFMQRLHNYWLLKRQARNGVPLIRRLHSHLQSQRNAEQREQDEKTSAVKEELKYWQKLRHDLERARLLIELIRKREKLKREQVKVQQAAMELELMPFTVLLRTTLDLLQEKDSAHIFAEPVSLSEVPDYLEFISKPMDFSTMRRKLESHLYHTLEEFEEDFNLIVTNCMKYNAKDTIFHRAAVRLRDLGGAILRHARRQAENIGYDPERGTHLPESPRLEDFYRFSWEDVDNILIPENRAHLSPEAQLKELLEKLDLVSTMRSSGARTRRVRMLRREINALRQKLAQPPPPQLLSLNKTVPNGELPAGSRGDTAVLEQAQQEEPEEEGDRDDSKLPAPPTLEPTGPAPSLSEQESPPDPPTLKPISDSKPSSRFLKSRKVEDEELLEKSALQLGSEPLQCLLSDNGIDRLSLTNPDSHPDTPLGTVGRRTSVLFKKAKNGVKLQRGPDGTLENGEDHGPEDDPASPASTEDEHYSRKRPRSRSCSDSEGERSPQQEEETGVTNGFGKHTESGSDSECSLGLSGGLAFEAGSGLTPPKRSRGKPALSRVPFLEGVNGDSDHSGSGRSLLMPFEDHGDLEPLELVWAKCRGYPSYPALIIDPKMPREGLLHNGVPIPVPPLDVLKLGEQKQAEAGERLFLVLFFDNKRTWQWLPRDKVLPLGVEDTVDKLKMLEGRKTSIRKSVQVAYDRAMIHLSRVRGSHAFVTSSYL
UniProt Q5SVQ0: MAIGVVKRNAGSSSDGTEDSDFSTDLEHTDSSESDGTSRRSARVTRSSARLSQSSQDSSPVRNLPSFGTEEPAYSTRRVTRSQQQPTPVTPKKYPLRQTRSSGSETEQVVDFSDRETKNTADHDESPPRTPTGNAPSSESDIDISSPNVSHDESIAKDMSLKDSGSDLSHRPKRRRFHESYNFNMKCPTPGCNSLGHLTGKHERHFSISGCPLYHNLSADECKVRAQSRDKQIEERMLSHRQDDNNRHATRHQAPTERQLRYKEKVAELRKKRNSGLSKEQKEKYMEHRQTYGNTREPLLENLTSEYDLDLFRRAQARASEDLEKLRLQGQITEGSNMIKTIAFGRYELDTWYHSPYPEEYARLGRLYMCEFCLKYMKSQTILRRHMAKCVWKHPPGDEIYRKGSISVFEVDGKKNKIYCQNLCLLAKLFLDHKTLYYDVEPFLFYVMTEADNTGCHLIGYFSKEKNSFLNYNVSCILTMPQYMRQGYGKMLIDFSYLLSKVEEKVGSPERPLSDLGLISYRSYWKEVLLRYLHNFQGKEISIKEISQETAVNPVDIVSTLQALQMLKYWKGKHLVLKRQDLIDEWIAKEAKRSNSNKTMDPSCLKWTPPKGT

With “KAT7 (in mouse cardiac fibroblasts and mouse heart tissue) (from UniProt Q5SVQ0 1-613) (enzyme)” the binding [1] was “binds” and the binding [2] was “binds”.

— publication PMC12541625
